The other results are listed elsewhere or left out. Further columns of the screen follow, without active or inactive calls. The list favours compounds with an active or inconclusive main result. Potencies come from curve fits of mixed quality, noted in brackets.
Test: qHTS Assay to Find Inhibitors of Chronic Active B-Cell Receptor Signaling
Conditions: ABC-DLBCL IkBa-CBG/CBR reporter, luminescence ratio (green luciferase fused to IkBa over red control in TMD8 lymphoma cells), 4 h
Outline: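 Compounds up to 46 uM were incubated four hours with TMD8 cells whose green CBG68 luciferase is fused to IkappaBalpha; red CBR luminescence normalised the signal, and concentration-effect curves were fitted to fusion, red and ratio data.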

[1] = measured here: CBR red luminescence, cell number
[2] = measured here: IkBa-CBG green luminescence

Row | SMILES | AC50 [1] | AC50 [2]
1 | Cc1cc(OCC(=O)N(C)Cc2ccccc2)cc(C)c1Cl | 11.2 µM [rising, partial curve] | 
2 | O=C(Cc1ccc([N+](=O)[O-])cc1)Nc1ccon1 | 0.112 µM [rising, full curve] | 
3 | O=C(O)CCN1C(=O)/C(=C\c2ccc(OCc3ccccc3)c(OCc3ccccc3)c2)SC1=S | 7.94 µM [falling, partial curve, poor fit] | 
4 | Cn1nnc2c(NCc3ccccc3)ncnc21 | 11.2 µM [falling, single point] | 
5 | CN(c1cccc(NC(=O)CN(c2ccc(Cl)c(Cl)c2)S(=O)(=O)c2ccccc2)c1)S(C)(=O)=O | 10.3 µM [falling, single point] | 20.6 µM [rising, partial curve, poor fit]
6 | Cn1c(=O)c2[nH]c(N3CCN(c4ccccn4)CC3)nc2n(C)c1=O | 0.631 µM [falling, full curve, poor fit] | 
7 | Cc1ccccc1Nc1nc(-c2sc(NC(=O)c3ccc([N+](=O)[O-])cc3)nc2C)cs1 | 11.2 µM [falling, partial curve, poor fit] | 
8 | COc1ccc(Cl)cc1NC(=O)C(=O)N/N=C/c1cc(C)n(-c2ccc(C)cc2)c1C | 5.8 µM [falling, full curve] | 
9 | O=C(NCC1CCCO1)c1ccc(Br)c(S(=O)(=O)N2CCOCC2)c1 (configuration not stated) | 2.59 µM [rising, single point] | 
10 | O=C(Nc1ccc(Br)cc1)c1cc(-c2ccncc2)nc2ccccc12 |  | 32.6 µM [falling, partial curve, poor fit]
11 | O=S(=O)(c1cccc2cccnc12)N1CCN(c2ccccn2)CC1 | 17.8 µM [falling, partial curve, poor fit] | 
12 | CCC(C)(C)n1nnnc1C(c1cc2cccc(C)c2[nH]c1=O)N1CCN(C(=O)c2ccco2)CC1 (configuration not stated) | 35.5 µM [rising, partial curve, poor fit] | 
13 | O=C(NCCN1CCOCC1)c1cc2ccccc2[nH]1 | 16.4 µM [rising, partial curve, poor fit] | 
14 | Cc1nn(-c2ccccc2)c(C)c1C(=O)OC(C)C(=O)NC1CCCCC1 (configuration not stated) | 0.0517 µM [rising, full curve, poor fit] | 
15 | COc1ccc(N/N=C(\C#N)C(=N)SCc2ccccc2)cc1 | 2.51 µM [falling, partial curve] | 
16 | CC[C@]12c3[nH]c4cc(-c5ccco5)ccc4c3CCN1C(=O)[C@@H](CC(=O)NCCc1ccccn1)C[C@@H]2C(=O)N1CCN(C(=O)c2ccco2)CC1 | 7.31 µM [rising, partial curve, poor fit] | 
17 | Cc1ccc(S(=O)(=O)Nc2cccc3cccnc23)cc1 | 4.11 µM [rising, full curve, poor fit] | 4.61 µM [falling, full curve]
18 | COc1cc(C(=O)OC(C)CN2CCCC2)cc(OC)c1OC (configuration not stated) | 3.66 µM [falling, full curve] | 6.51 µM [rising, partial curve, poor fit]
19 | O=C(COC(=O)C(Cc1ccccc1)NC(=O)c1cccs1)NCc1ccccc1 (configuration not stated) | 16.4 µM [rising, single point] | 
20 | CCN(CC(=O)Nc1c(F)cccc1F)C(=O)CNC(=O)c1ccc(C)s1 | 31.6 µM [falling, single point] | 
21 | CC(=O)Nc1cccc(NC(=O)C(=O)c2cn(CC(=O)N3CCCCC3)c3ccccc23)c1 | 1.26 µM [falling, full curve] | 
22 | Cc1cccn2c(=O)c3cc(C(=O)NCc4ccco4)c(=N)n(CCc4ccccc4)c3nc12 | 1.12 µM [falling, full curve] | 12.6 µM [rising, partial curve, poor fit]
23 | COC(=O)CSc1ccc(S(=O)(=O)N2CCCCCC2)cc1[N+](=O)[O-] | 6.31 µM [falling, full curve] | 
24 | O=C(CN1CCC(NC(=O)c2cccc(F)c2)CC1)Nc1ccc(Br)cc1 |  | 15.8 µM [rising, partial curve, poor fit]
25 | CC1CC1C(=O)Nc1nc2ccc(S(C)(=O)=O)cc2s1 (configuration not stated) | 25.1 µM [rising, single point] | 
26 | CC(C)(C)NC(=S)N/N=C/c1c(Cl)cccc1Cl | 35.5 µM [rising, single point] | 
27 | CCc1ccccc1NC(=O)CC(c1ccc(OC)cc1)n1cccc1 (configuration not stated) | 0.184 µM [falling, partial curve, poor fit] | 
28 | c1ccc(-c2cc(N3CCCCCC3)n[nH]2)cc1 | 0.00461 µM [falling, full curve, poor fit] | 

Retrieved by structure from the entries so far:
Row | SMILES | AC50 [1] | AC50 [2]
22 | Cc1cccn2c(=O)c3cc(C(=O)NCc4ccco4)c(=N)n(CCc4ccccc4)c3nc12 | 1.12 µM [falling, full curve] | 12.6 µM [rising, partial curve, poor fit]
12 | CCC(C)(C)n1nnnc1C(c1cc2cccc(C)c2[nH]c1=O)N1CCN(C(=O)c2ccco2)CC1 (configuration not stated) | 35.5 µM [rising, partial curve, poor fit] | 

Reference: PubChem BioAssay AID493014 (National Center for Advancing Translational Sciences (NCATS), 2011)
